These are yes or no findings as the source states them, for the method shown. Binding seen in cells or lysates may run through a third protein. Some entries that bind do so weakly or less than the wild type. Each block holds one binder with its values, some of them ahead of it.
Columns and labels:
Akt1 [1] = target: Akt1 (UniProt P31749); test: co-immunoprecipitation of endogenous Akt1 with FLAG antibodies
Akt1 [2] = target: Akt1 (UniProt P31749); test: co-immunoprecipitation with anti-FLAG antibody

The chains behind the UniProt entries cited, without tags or fusion partners.
UniProt P31749: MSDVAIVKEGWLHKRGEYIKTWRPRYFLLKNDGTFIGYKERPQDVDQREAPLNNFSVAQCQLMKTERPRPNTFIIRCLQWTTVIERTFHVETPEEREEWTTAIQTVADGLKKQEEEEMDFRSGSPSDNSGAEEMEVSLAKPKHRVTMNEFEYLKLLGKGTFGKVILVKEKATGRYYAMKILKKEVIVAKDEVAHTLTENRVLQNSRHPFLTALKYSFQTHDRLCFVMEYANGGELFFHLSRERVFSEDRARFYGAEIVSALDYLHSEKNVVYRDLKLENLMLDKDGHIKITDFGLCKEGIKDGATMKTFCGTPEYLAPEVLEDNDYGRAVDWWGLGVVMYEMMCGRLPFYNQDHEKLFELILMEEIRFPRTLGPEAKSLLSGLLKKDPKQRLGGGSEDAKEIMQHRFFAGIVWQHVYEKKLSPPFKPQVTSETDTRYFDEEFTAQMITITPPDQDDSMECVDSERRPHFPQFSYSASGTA

binding (Akt1 [1]): binds
B1: partial FCHo1 (562-889)-C-3×DDK (protein, human, UniProt O14526 562-889, looked up, not shown: small tags and cut ends)
chain: RRLRSRKVSCPLTRSNGDLSRSLSPSPLGSSAASTALERPSFLSQTGHGVSRGPSPVVLGSQDALPIATAFTEYVHAYFRGHSPSCLARVTGELTMTFPAGIVRVFSGTPPPPVLSFRLVHTTAIEHFQPNADLLFSDPSQSDPETKDFWLNMAALTEALQRQAEQNPTASYYNVVLLRYQFSRPGPQSVPLQLSAHWQCGATLTQVSVEYGYRPGATAVPTPLTNVQILLPVGEPVTNVRLQPAATWNLEEKRLTWRLPDVSEAGGSGRLSASWEPLSGPSTPSPVAAQFTSEGTTLSGVDLELVGSGYRMSLVKRRFATGMYLVSC

binding (Akt1 [2]): binds
B2: partial FCHo1 (1-268)-C-3×DDK (protein, human, UniProt O14526 1-268, looked up, not shown: small tags and cut ends)
chain: MSYFGEHFWGEKNHGFEVLYHSVKQGPISTKELADFIRERATIEETYSKAMAKLSKLASNGTPMGTFAPLWEVFRVSSDKLALCHLELTRKLQDLIKDVLRYGEEQLKTHKKCKEEVVSTLDAVQVLSGVSQLLPKSRENYLNRCMDQERLRRESTSQKEMDKAETKTKKAAESLRRSVEKYNSARADFEQKMLDSALRFQAMEETHLRHMKALLGSYAHSVEDTHVQIGQVHEEFKQNIENVSVEMLLRKFAESKGTGREKPGPLDF
